# Measured values from PubChem BioAssay AID485290 (National Center for Advancing Translational Sciences (NCATS), 2010).
# Protein sequences, listed by entry. Tags and fused reporters are not part of them.
# UniProt Q9NUW8, whole entry, looked up: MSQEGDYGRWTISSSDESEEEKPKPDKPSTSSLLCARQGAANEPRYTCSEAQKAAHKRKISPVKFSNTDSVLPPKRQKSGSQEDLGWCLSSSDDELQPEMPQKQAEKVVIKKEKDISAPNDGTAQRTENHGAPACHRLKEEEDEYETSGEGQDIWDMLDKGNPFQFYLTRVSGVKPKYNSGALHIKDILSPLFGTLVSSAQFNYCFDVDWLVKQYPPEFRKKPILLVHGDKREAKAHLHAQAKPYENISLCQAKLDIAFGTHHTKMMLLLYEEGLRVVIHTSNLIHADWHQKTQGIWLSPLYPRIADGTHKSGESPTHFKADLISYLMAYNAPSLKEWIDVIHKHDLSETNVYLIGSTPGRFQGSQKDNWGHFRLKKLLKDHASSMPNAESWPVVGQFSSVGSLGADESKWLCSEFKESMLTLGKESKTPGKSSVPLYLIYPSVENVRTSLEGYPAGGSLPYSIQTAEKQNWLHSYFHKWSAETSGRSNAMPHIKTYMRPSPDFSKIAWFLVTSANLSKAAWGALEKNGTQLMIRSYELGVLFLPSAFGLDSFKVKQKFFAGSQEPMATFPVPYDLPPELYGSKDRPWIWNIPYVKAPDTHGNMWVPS
# Most of the hits are listed elsewhere, so they are rarer here than in the full data. Calls of active or inactive are those of the source. The call rests on the fitted dose curve; in most records, active means well fitted inhibition curve with a large enough effect; inconclusive means small, poorly fitted or top-dose-only effect; inactive means no such curve, though single readings can be large or run the other way.
# Target: Tyrosyl-DNA phosphodiesterase 1 (Homo sapiens) (UniProt Q9NUW8)
# Experiment: qHTS Assay for Inhibitors of Tyrosyl-DNA Phosphodiesterase (TDP1); further: nearly all actives have a fitted effect of over 40% in size
# Conditions: recombinant TDP1, AlphaScreen DNA substrate cleavage
# From the text: NIH Molecular Libraries Probe Production Network [MLPCN]
# NIH Chemical Genomics Center [NCGC]
# Assay Provider: Yves Pommier and Christophe Marchand, National Cancer Institute
# Assay Title: qHTS Assay for Inhibitors of Tyrosyl-DNA Phosphodiesterase (TDP1); further: nearly all actives have a fitted effect of over 40% in size
# Human tyrosyl-DNA phosphodiesterase I (Tdp1) is a rational anticancer target because this enzyme is involved in the repair of DNA lesions created by the trapping of human DNA topoisomerase I (Top1) following treatment by anticancer agents such as camptothecins. Recombinant Tdp1 was expressed and purified from E. coli in the laboratory (Anthony et al, Nucleic Acids Research, 2007, Vol. 35, 4474-4484). A Tdp1 DNA substrate bearing a 5' biotin and a 3' phospho-tyrosine was obtained by custom synthesis. This oligonucleotidic DNA substrate was subsequently coupled to a fluorescein isothiocyanate (FITC) group via the free amino group present on the phospho-tyrosine. Tdp1 was screened against the NCGC small molecule library using the AlphaScreen (AS) detection method in which a streptavidin donor AS bead is bound at the 5' end and an anti-FITC AS acceptor bead is bound at the 3' end of the DNA oligonucleotidic substrate. In the presence of Tdp1, the enzyme cleaves the tyrosine-FITC group, leaving a 3' end phosphate on the DNA substrate. This cleavage reaction results in a loss of signal in AS.
# [1] 3 ul of buffer is dispensed in columns 3 & 4 as negative control (no enzyme and maximum signal),
# [2] 3 ul of enzyme (1 nM final) is dispensed in columns 1,2, 5-48,
# [3] 1 ul of substrate (15 nM final) is dispensed throughout the plate,
# [4] 1 ul of AS donor/acceptor bead mix (10 ug/ml final) is dispensed throughout the plate
# 3 ul of Tdp1 enzyme is dispensed to 1536-well Kalypsys black solid bottom plates. Compounds and controls (23 nl) are transferred via Kalypsys Pin Tool. The plates are incubated for 15 min at room temperature, and then 1 ul of substrate is added to start the reaction. After 5 min incubation at room temperature, 1 ul of AS donor/acceptor bead mix is added and the plates are further incubated for 10 min at room temperature. The detection is then performed on a PerkinElmer Envision reader.
# On the % scale 0 is the no-effect control and ±100 the full control effect.
smiles,measurement,setting,value
CN1C2CCC1CC(OC(=O)C(O)c1ccccc1)C2 (centres undefined),"activity change, negative = inhibition",at 56.1 µM (top of the series),inactive: -11.9%
CN1[C@@H]2CC[C@H]1CC(OC(=O)[C@@H](O)c1ccccc1)C2 (some centres undefined),"activity change, negative = inhibition",at 21 µM (top of the series),inactive: 13.3%
same,"activity change, negative = inhibition",at 130 µM (top of the series),inactive: 6.38%
O=C1NC(=O)c2c1c(-c1ccccc1)cc1[nH]c3ccc(O)cc3c21,"activity change, negative = inhibition",at 130 µM (top of the series),inactive: 23.3%
